Data from paper PMC9454246, “The PqsE Active Site as a Target for Small Molecule Antimicrobial Agents against Pseudomonas aeruginosa” (Biochemistry, 2022).
These are yes or no findings as the source states them, for the method shown. In cells and extracts the contact can be indirect. Some results given as binding are weak or reduced against the parent protein; the word gives no strength.

By UniProt entry, the sequences of proteins in these tests, tags left out.
UniProt P20581: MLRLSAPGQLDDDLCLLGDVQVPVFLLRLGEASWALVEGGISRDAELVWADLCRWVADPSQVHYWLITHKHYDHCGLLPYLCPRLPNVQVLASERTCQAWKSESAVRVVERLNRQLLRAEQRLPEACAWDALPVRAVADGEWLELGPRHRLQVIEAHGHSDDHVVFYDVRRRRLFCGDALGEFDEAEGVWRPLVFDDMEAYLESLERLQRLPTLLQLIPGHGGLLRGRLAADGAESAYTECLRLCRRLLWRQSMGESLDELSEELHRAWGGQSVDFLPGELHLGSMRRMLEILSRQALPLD
UniProt P54292: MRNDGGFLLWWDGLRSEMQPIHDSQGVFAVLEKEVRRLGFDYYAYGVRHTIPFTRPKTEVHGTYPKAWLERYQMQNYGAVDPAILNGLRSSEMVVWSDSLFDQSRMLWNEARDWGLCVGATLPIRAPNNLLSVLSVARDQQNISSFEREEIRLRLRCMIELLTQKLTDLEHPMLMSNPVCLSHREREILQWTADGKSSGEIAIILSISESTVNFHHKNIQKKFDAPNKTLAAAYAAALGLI

Target: 6xHis-PqsE (wildtype) (P. aeruginosa) (UniProt P20581)
Test: pull-down; 6xHis-PqsE proteins immobilized on Ni resin and exposed to lysate containing RhlR; complexes washed, eluted and analysed by SDS-PAGE; only the target purified

RhlR (from UniProt P54292 1-241)
binding: binds
